Results are given in words; binding and its absence hold for the method and conditions named. In cells and extracts the contact can be indirect. For some assays here: Where a sequence is shown, tags or fusion partners need not be part of it.

The values that follow come from article PMC10891346.

The target in assay [1] is FLAG-tagged Gag in which the majority of MA was deleted (GagΔMA) (HIV-1 (HXB2 and NL strains cloned; not stated which was used)). Kind of assay: co-IP.
For assay [2], the target named is GST-fused Gag fragment GagΔMA (HIV-1 (the HXB2 strain)). Kind of assay: pull-down; only the target purified.

B1: Syntaxin6 tagged with the Myc sequence at the N-terminus (Myc-Syx6) (protein, UniProt O43752 1-255)
chain: MSMEDPFFVVKGEVQKAVNTAQGLFQRWTELLQDPSTATREEIDWTTNELRNNLRSIEWDLEDLDETISIVEANPRKFNLDATELSIRKAFITSTRQVVRDMKDQMSTSSVQALAERKNRQALLGDSGSQNWSTGTTDKYGRLDRELQRANSHFIEEQQAQQQLIVEQQDEQLELVSGSIGVLKNMSQRIGGELEEQAVMLEDFSHELESTQSRLDNVMKKLAKVSHMTSDRRQWCAIAILFAVLLVVLILFLVL
For B1, the binding entry in assay [1] is given as “no binding”.

B2: in vitro-translated and [35S]-labeled Syx6 (protein, UniProt O43752 1-255)
chain: MSMEDPFFVVKGEVQKAVNTAQGLFQRWTELLQDPSTATREEIDWTTNELRNNLRSIEWDLEDLDETISIVEANPRKFNLDATELSIRKAFITSTRQVVRDMKDQMSTSSVQALAERKNRQALLGDSGSQNWSTGTTDKYGRLDRELQRANSHFIEEQQAQQQLIVEQQDEQLELVSGSIGVLKNMSQRIGGELEEQAVMLEDFSHELESTQSRLDNVMKKLAKVSHMTSDRRQWCAIAILFAVLLVVLILFLVL
modifications: [35S]-labeled
Regarding B2, in assay [2], the binding result is given as “no binding”.
